Measured values taken from publication PMC8210614 (Theranostics, 2021).
Some peptides are written in HELM: one residue between dots, names in brackets for other building blocks, links after the first $.

Experiment: general procedure: Fmoc solid-phase peptide synthesis; Fmoc Ser(t-Bu) TentaGel S PHB 0.25 mmol/g; HATU/HOAt (dye conjugation)
Conditions: conjugation step, RP-HPLC

## PEPTIDE1{[IRDye800CW].E.E.[O2O].[O2O].D.[Cha].F.[dS].[dR].Y.L.W.S}$$$$V2.0
  final HPLC purity: 98%
